Experiment [1] addresses T1, full-length mouse BetaM (ATP1B4), GAL4 DNA binding domain bait (mouse) (UniProt Q99ME6).
T1 sequence: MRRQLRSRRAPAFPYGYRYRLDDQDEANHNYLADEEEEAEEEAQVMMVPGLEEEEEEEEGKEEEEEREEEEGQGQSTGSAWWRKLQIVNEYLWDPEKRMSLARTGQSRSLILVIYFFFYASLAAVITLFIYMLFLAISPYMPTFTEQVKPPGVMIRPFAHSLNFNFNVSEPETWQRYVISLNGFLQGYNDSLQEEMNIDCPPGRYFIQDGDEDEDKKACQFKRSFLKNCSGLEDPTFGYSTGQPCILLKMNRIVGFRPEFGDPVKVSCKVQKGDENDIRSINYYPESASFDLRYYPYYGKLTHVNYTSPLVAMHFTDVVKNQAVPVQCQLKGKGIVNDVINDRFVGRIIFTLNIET
Put plainly: two-hybrid; GAL4 yeast two-hybrid screen of a pretransformed 17 day mouse embryo cDNA library (Y187) with full-length mouse BetaM bait in AH109; mating, SD/-Trp/-Leu/-His 5 days at 30 °C, then SD/-Ade/-Trp/-Leu/-His with α-X-Gal; confirmed by co-transformation and mating with isolated prey plasmids.

For the next experiment, the target named is T2, chicken BetaM (chicken) (UniProt Q2HZ96).
T2 sequence: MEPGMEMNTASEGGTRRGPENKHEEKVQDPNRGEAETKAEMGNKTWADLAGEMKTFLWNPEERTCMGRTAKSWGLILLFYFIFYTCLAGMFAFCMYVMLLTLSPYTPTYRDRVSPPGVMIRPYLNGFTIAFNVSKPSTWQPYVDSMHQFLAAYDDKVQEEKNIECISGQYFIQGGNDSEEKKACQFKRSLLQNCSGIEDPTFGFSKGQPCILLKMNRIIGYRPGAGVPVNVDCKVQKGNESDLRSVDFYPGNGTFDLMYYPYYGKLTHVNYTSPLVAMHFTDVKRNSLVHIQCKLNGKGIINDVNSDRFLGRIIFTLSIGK
As to the kind of experiment: two-hybrid; chicken homologs of the interactors tested cross-wise with chicken and mouse BetaM and the mouse interactors, by the criteria of the library screening.

Experiment [2] deals with N-terminal domain of BetaM (mouse) (UniProt Q99ME6). Put plainly: two-hybrid; pairwise two-hybrid tests of truncated forms of BetaM with the interactors (named as two-hybrid test for SKIP in Figure 1; the method is not named for the other interactors).

No constants are given. Whether binding was seen depends on the method and setting. For some of these results: Binding calls can cover weak binding; strength is not graded here.

As for ERGIC3 prey, in experiment [1], the binding result is listed as “binds”.

As for “Heme oxidase 1/HMOX1 prey, residues 200-389 as printed (N-term. truncated) (domain or fragment)”, the binding entry in experiment [1] was “binds”.

For “LAP1/TOR1AIP2 prey, residues 96-520 (N-term. truncated) (domain or fragment)”, the binding result in experiment [1] is given as “binds”.

On to “Syne-1/nesprin-1 prey, residues 566-949 (KASH domain containing) (domain or fragment)”, for which, in experiment [1], the binding result is on record as “binds”.

As to chicken SKIP, the binding entry with chicken BetaM (chicken) is “no binding”.

B1: PHF3 prey, residues 168-397 (N-term. truncated) (domain or fragment, UniProt B2RQG2 168-397)
chain: SKVGVKPAERCQGKEEVYASLKSEHPKESRRSGRHAEQMDVAPEVSASSVDSSVSSCAGMKEEAEFDPKHACNNQGEVNVPSPELDCPLLSETSASVEEKNIEALMECKAKTNSSPLFKFPVREDEQSDLVSGELNDTIEGKDAGGKPDQESEEVKFPCEGDQTAEEPESSDVSSDSACANKNKAEKNEGAECHLELKNTVDIVDKPENSPQRNELETLGYGEDTESNDA
B1: in experiment [2], the binding result is on record as “binds”.

B2: Heme oxidase 2/HMOX2 prey (protein, UniProt O70252 1-315)
chain: MSSEVETSEGVDESEKNSMAPEKENHTKMADLSELLKEGTKEAHDRAENTQFVKDFLKGNIKKELFKLATTALYFTYSALEEEMDRNKDHPAFAPLYFPTELHRKAALIKDMKYFFGENWEEQVKCSEAAQKYVDRIHYVGQNEPELLVAHAYTRYMGDLSGGQVLKKVAQRALKLPSTGEGTQFYLFEHVDNAQQFKQFYRARMNALDLNLKTKERIVEEANKAFEYNMQIFSELDQAGSMLARETLEDGLPVHDGKGDIRKCPFYAAQPDKGTLGGSNCPFQTTVAVLRKPSLQLILAASVALVAGLLAWYYM
As to B2, in experiment [2], the binding entry is reported as “binds”.

(Values after publication PMC4778017.)
